These are yes or no findings as the source states them, for the method shown. Some results given as binding are weak or reduced against the parent protein; the word gives no strength.
Molecular target: T1, mouse MCAM expressed on transfected CHO cells (mouse) (UniProt Q8R2Y2)
T1 sequence (looked up): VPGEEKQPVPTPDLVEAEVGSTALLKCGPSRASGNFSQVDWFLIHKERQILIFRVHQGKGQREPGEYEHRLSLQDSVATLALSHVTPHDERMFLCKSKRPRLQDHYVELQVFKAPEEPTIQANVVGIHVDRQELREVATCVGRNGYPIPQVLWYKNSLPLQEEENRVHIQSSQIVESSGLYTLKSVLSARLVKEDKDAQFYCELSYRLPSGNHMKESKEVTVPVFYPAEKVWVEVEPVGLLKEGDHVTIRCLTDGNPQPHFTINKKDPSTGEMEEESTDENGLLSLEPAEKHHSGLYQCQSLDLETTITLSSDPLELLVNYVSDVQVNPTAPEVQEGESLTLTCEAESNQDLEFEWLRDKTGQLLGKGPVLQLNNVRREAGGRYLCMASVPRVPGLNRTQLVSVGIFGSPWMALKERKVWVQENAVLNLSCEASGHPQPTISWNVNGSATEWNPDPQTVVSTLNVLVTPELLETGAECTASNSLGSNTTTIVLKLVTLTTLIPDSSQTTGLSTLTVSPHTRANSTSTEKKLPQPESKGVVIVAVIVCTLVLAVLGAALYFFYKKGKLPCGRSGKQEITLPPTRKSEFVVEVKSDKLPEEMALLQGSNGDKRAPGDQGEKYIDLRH
Assay: flow cytometry, mouse MCAM CHO cells, laminin 10 µg/ml, pan-laminin antibody

The chains behind the UniProt entries cited, without tags or fusion partners. Where a name states a change or a piece, a line headed by the entry shows the natural chain unless it says otherwise.
UniProt Q16363: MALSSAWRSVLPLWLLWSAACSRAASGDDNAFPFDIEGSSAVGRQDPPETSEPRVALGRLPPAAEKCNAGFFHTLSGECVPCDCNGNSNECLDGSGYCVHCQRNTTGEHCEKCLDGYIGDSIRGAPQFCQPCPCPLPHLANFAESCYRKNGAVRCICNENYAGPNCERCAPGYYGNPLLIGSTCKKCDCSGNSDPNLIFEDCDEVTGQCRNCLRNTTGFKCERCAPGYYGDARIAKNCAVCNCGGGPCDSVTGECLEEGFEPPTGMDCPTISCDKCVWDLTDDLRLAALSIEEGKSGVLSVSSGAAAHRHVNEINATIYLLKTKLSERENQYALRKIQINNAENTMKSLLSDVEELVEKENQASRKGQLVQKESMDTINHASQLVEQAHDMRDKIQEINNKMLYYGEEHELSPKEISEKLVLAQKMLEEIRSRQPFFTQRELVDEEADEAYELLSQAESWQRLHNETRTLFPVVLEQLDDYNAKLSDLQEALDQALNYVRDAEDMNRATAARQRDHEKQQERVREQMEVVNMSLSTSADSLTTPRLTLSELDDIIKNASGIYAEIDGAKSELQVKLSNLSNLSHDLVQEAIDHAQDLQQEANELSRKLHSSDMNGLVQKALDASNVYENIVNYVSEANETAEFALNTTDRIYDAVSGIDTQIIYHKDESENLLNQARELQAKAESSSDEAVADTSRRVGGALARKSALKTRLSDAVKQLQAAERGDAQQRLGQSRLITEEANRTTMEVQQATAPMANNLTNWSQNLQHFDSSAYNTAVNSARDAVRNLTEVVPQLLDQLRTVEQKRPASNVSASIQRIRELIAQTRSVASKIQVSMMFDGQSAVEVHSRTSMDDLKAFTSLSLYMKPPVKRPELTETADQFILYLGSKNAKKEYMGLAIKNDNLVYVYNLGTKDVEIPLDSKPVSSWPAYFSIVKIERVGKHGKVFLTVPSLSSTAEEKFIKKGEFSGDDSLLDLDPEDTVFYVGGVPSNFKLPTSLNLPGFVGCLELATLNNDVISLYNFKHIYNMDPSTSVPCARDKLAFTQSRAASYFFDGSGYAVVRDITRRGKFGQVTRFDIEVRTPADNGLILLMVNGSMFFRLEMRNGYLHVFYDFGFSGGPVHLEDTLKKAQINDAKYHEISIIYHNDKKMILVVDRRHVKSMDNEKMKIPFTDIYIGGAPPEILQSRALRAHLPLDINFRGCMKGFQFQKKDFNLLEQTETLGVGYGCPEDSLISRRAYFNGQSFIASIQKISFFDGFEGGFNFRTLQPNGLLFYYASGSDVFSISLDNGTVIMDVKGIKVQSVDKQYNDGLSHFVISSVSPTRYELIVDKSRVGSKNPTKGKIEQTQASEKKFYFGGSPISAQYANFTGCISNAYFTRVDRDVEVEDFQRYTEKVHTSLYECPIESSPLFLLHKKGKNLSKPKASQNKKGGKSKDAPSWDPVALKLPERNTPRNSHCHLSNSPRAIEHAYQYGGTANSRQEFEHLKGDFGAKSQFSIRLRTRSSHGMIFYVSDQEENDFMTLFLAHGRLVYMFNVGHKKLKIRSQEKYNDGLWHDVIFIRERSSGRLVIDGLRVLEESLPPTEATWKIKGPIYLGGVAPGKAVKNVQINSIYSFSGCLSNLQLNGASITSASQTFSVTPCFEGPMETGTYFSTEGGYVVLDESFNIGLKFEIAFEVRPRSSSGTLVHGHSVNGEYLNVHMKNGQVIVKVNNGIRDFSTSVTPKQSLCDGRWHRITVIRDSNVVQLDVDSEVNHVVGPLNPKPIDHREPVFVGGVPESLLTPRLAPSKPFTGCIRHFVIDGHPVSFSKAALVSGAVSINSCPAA

Substance: recombinant human laminin 411 (Biolamina) (from UniProt Q16363 25-1823; P07942 22-1786; P11047 34-1609) (ligand)
- binding: binds

Source: patent publication US20150239980A1
